Data as given in patent US9453062B2 (Beijing Hanmi Pharmaceutical Co., Ltd., priority 2011, dated 2016).

Experiment: general procedure: Fmoc solid-phase peptide synthesis; Fmoc-Rink amide resin; DIC/HOBt
Settings: whole synthesis, scale 0.05 mmol

Row | Substance | final HPLC purity
1 | Tyr-Aib-Glu-Gly-Thr-Phe-Ile-Ser-Asp-Tyr-Ser-Ile-Ala-Met-Asp-Lys-Ile-His-Gln-Gln-Asp-Phe-Val-Asn-Trp-Leu-Leu-Ala-Gln-Cys(NH2) | more than 90%
2 | Tyr-Aib-Glu-Gly-Thr-Phe-Thr-Ser-Asp-Tyr-Ser-Ile-Tyr-Met-Glu-Lys-Glu-Ala-Val-Arg-Glu-Phe-Ile-Ala-Trp-Leu-Val-Lys(3-Maleimidopropionic acyl)-Gly(NH2) | more than 90%

One purity is given for all peptides; the source may state it once.
